Measured data: PubChem BioAssay AID743121 (NCATS, 2013)
Screen: 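Partners whose loss is lethal together with topoisomerase I blockade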 (primary screen). Cell system: MDA-MB-231 cells, a human breast cancer line. Knock-down reagent: single siRNA against human genes, 20 nM siRNA (0.8 pmol per well). Timing: 120 h (drug added 48 h after transfection, read 72 h later). Conditions: camptothecin 20 nM (about EC30) for 72 h; vehicle 0.1% DMSO in parallel plates. Read-out: 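Cell viability by ATP luminescence (CellTiter-Glo) as % of non-targeting siRNA wells, and the log2 ratio of viability without drug over viability with camptothecin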. Scale: log2 vehicle/camptothecin viability: higher = stronger sensitisation to camptothecin; viability with camptothecin: higher = more viable cells. Hit rule: 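Each gene scored by redundant siRNA activity (RSA) over its individual siRNA ratios; a gene is called active at p < 0.001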.
Shown is one part, drawn at random, of about 26,000 reagents. 167 of all reagents (0.63%) count as active. 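Calls are per gene from RSA p-values that are not deposited; an individual active-marked siRNA can sensitise only weakly.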 Unmarked entries are inactive. The numbers tell different reagents against one gene apart. Further read-outs or replicates are left out here.

no.	Gene	reagent no.	log2 vehicle/camptothecin viability	viability with camptothecin (% of control)
1	CGA	1	-0.236	85.7
2	CGA	2	0.12	23.9
3	CGA	3	-0.424	79.7
4	CGA	4	0.415	39.6
5	SERPINB5	1	-0.325	117
6	SERPINB5	2	-0.641	75.5
7	SERPINB5	3	-0.1	87.9
8	SERPINB5	4	-0.246	105
9	CYP4F22	1	-0.26	73.8
10	CYP4F22	2	0.741	20.5
11	CYP4F22	3	-0.274	45.9
12	NPR3	1	1.02	33.9
13	NPR3	2	-0.246	94
14	NPR3	3	-0.293	118
15	NPR3	4	-0.549	88.7
16	CCT4	1	-0.406	31.3
17	CCT4	2	-0.294	68.3
18	CCT4	3	-0.232	58.6
19	CCT4	4	-0.523	77.5
20	TRAF2	1	-0.103	42.2
21	TRAF2	2	0.0199	88
22	TRAF2	3	0.976	33.9
23	AQP1	1	-0.232	42.2
24	AQP1	2	-0.389	21.2
25	AQP1	3	-0.739	28.6
26	AQP1	4	0.0437	73.6
27	RHOXF1	1	0.199	72.9
28	RHOXF1	2	-0.468	85
29	RHOXF1	3	-0.0519	105
30	RHOXF1	4	-0.121	49.5

5 entries already listed, ordered by “log2 vehicle/camptothecin viability”, highest first.
Gene	reagent no.	log2 vehicle/camptothecin viability	viability with camptothecin (% of control)
RHOXF1	1	0.199	72.9
AQP1	4	0.0437	73.6
AQP1	2	-0.389	21.2
RHOXF1	2	-0.468	85
AQP1	3	-0.739	28.6
